Data as given in patent publication US20110171231A1 (published 2011).
These are yes or no findings as the source states them, for the method shown. Some results given as binding are weak or reduced against the parent protein; the word gives no strength. Where a sequence is shown, tags or fusion partners need not be part of it.

Target: T1, recombinant mouse PlGF-2 (mouse, UniProt P49764 24-158, limits assumed)
T1 sequence (looked up): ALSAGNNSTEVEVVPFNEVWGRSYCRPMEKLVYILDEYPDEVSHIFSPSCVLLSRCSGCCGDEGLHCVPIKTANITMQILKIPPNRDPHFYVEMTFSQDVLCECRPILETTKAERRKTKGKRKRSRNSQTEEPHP
Assay: competition ELISA on mPlGF-coated plate; unlabelled NRP-1-Fc against biotinylated NRP-1-Fc

binding: binds
B1: biotinylated mouse NRP-1-Fc (Fc fusion, UniProt P97333 22-856, looked up, not shown: a dimerising Fc or GST)
chain: FRSDKCGGTIKIENPGYLTSPGYPHSYHPSEKCEWLIQAPEPYQRIMINFNPHFDLEDRDCKYDYVEVIDGENEGGRLWGKFCGKIAPSPVVSSGPFLFIKFVSDYETHGAGFSIRYEIFKRGPECSQNYTAPTGVIKSPGFPEKYPNSLECTYIIFAPKMSEIILEFESFDLEQDSNPPGGMFCRYDRLEIWDGFPEVGPHIGRYCGQKTPGRIRSSSGVLSMVFYTDSAIAKEGFSANYSVLQSSISEDFKCMEALGMESGEIHSDQITASSQYGTNWSVERSRLNYPENGWTPGEDSYKEWIQVDLGLLRFVTAVGTQGAISKETKKKYYVKTYRVDISSNGEDWISLKEGNKAIIFQGNTNPTDVVLGVFSKPLITRFVRIKPVSWETGISMRFEVYGCKITDYPCSGMLGMVSGLISDSQITASNQADRNWMPENIRLVTSRTGWALPPSPHPYTNEWLQVDLGDEKIVRGVIIQGGKHRENKVFMRKFKIAYSNNGSDWKTIMDDSKRKAKSFEGNNNYDTPELRTFSPLSTRFIRIYPERATHSGLGLRMELLGCEVEAPTAGPTTPNGNPVDECDDDQANCHSGTGDDFQLTGGTTVLATEKPTIIDSTIQSEFPTYGFNCEFGWGSHKTFCHWEHDSHAQLRWSVLTSKTGPIQDHTGDGNFIYSQADENQKGKVARLVSPVVYSQSSAHCMTFWYHMSGSHVGTLRVKLRYQKPEEYDQLVWMVVGHQGDHWKEGRVLLHKSLKLYQVIFEGEIGKGNLGGIAVDDISINNHISQEDCAKPTDLDKKNTEIKIDETGSTPGYEGEGEGDKNISRKPGNVLKTLDP
modifications: biotinylated
